Values from PubChem BioAssay AID1224830 (NIAID, 2016).
Shown is a random part of about 18,000 deposited reagents. Over the whole deposit, about 2,900 (16%) were called active. 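Calls are made per well; low scores hint the gene aids the LPS response, high scores that it dampens it.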 Repeated entries: four replicate wells of each siRNA pool.

Test: 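Host factors that control LPS-induced TNF expression in human macrophages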 (primary screen)
Cells: human THP-1 monocytic leukaemia cells, TNF dual-luciferase reporter clone, PMA-differentiated to macrophage-like cells
Knock-down reagent: siRNA pool against human genes, 50 nM
Duration: LPS for 4 h, given about 3 days after siRNA transfection
Treatment: bacterial LPS (TLR4 ligand), 10 ng/ml
Detection: 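TNF firefly reporter luminescence divided by renilla, normalised to the plate median, then turned into a robust z-score for each replicate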
Direction: TNF reporter robust z-score: higher = stronger TNF reporter response to LPS
Rule for the call: 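a well is active when its z-score exceeds 2.8 or falls below -1.5; control wells carry no call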

Depletion of BLM (BLM RecQ like helicase) resulted in: TNF reporter robust z-score -1.06; inactive.
For BLM (BLM RecQ like helicase), the values are TNF reporter robust z-score -1.17; inactive.
Against BLM (BLM RecQ like helicase) the deposit lists TNF reporter robust z-score -0.19; inactive.
After knock-down of BLM (BLM RecQ like helicase) the results were TNF reporter robust z-score 0.79; inactive.
Against ABI1 (abl interactor 1), the entry reads TNF reporter robust z-score -1.96; active.
ABI1 (abl interactor 1) scored TNF reporter robust z-score -1.16; inactive.
ABI1 (abl interactor 1) showed TNF reporter robust z-score -1.3; inactive.
With knock-down of ABI1 (abl interactor 1) the results were TNF reporter robust z-score -1.66; active.
CLEC4D (C-type lectin domain family 4 member D) scored TNF reporter robust z-score 0.9; inactive.
With knock-down of CLEC4D (C-type lectin domain family 4 member D), the record shows TNF reporter robust z-score 3; active.
CLEC4D (C-type lectin domain family 4 member D) scored TNF reporter robust z-score 0.48; inactive.
With knock-down of CLEC4D (C-type lectin domain family 4 member D), the record shows TNF reporter robust z-score 2; inactive.
MYO7A (myosin VIIA) scored TNF reporter robust z-score -0.74; inactive.
Silencing of MYO7A (myosin VIIA) gave: TNF reporter robust z-score -0.3; inactive.
Silencing of MYO7A (myosin VIIA) resulted in: TNF reporter robust z-score -0.76; inactive.
Knock-down of MYO7A (myosin VIIA) resulted in: TNF reporter robust z-score -0.57; inactive.
For KHK (ketohexokinase), the values are TNF reporter robust z-score 1.41; inactive.
KHK (ketohexokinase) gave TNF reporter robust z-score 2.24; inactive.
With knock-down of KHK (ketohexokinase) the results were TNF reporter robust z-score -0.21; inactive.
With knock-down of KHK (ketohexokinase), the record shows TNF reporter robust z-score -0.11; inactive.
With knock-down of TCL1B (TCL1 family AKT coactivator B), the record shows TNF reporter robust z-score -1.21; inactive.
For TCL1B (TCL1 family AKT coactivator B) the deposit lists TNF reporter robust z-score 0.26; inactive.
Knock-down of TCL1B (TCL1 family AKT coactivator B) came out at: TNF reporter robust z-score -0.61; inactive.
For TCL1B (TCL1 family AKT coactivator B) the deposit lists TNF reporter robust z-score 0.08; inactive.
After knock-down of GSTA5 (glutathione S-transferase alpha 5), the record shows TNF reporter robust z-score -0.43; inactive.
After knock-down of GSTA5 (glutathione S-transferase alpha 5) the results were TNF reporter robust z-score 0.41; inactive.
GSTA5 (glutathione S-transferase alpha 5) scored TNF reporter robust z-score 1.05; inactive.
Depletion of GSTA5 (glutathione S-transferase alpha 5) came out at: TNF reporter robust z-score 0.84; inactive.
Knock-down of DCLK2 (doublecortin like kinase 2) came out at: TNF reporter robust z-score 1.77; inactive.
With knock-down of DCLK2 (doublecortin like kinase 2) the results were TNF reporter robust z-score 0.21; inactive.
With knock-down of DCLK2 (doublecortin like kinase 2), the record shows TNF reporter robust z-score 0.08; inactive.
DCLK2 (doublecortin like kinase 2) gave TNF reporter robust z-score 1.3; inactive.
For PDE3A (phosphodiesterase 3A), the values are TNF reporter robust z-score 2.33; inactive.
For PDE3A (phosphodiesterase 3A), the values are TNF reporter robust z-score 2.78; inactive.
Against PDE3A (phosphodiesterase 3A) the deposit lists TNF reporter robust z-score 1.21; inactive.
PDE3A (phosphodiesterase 3A) gave TNF reporter robust z-score 2.07; inactive.
Against AKR1B10 (aldo-keto reductase family 1 member B10), the entry reads TNF reporter robust z-score 0.25; inactive.
Depletion of AKR1B10 (aldo-keto reductase family 1 member B10) resulted in: TNF reporter robust z-score 0.72; inactive.
Silencing of AKR1B10 (aldo-keto reductase family 1 member B10) gave: TNF reporter robust z-score -0.57; inactive.
AKR1B10 (aldo-keto reductase family 1 member B10) scored TNF reporter robust z-score 0.61; inactive.
For LPAR1 (lysophosphatidic acid receptor 1), the entry reads TNF reporter robust z-score -1.14; inactive.
LPAR1 (lysophosphatidic acid receptor 1) gave TNF reporter robust z-score 0.13; inactive.
LPAR1 (lysophosphatidic acid receptor 1) scored TNF reporter robust z-score -0.92; inactive.
With knock-down of LPAR1 (lysophosphatidic acid receptor 1), the record shows TNF reporter robust z-score 0.68; inactive.
Silencing of FANCA (FA complementation group A) gave: TNF reporter robust z-score -0.99; inactive.
For FANCA (FA complementation group A) the deposit lists TNF reporter robust z-score -0.34; inactive.
After knock-down of FANCA (FA complementation group A), the screen gave TNF reporter robust z-score -0.29; inactive.
After knock-down of FANCA (FA complementation group A) the results were TNF reporter robust z-score 0.12; inactive.
